Most values lie at the floor of the assay. Slopes are relative: functional sequences can read slightly below zero.

The series concerns Saccharomyces cerevisiae PS128 hsf1 delta, HSF1(1-493) fusion. In words: growth estimate (transactivation domain function in HSF1 fusion, heat-shock survival) (a.u. (slope of normalised read count over time)); higher = stronger growth at 37°C, i.e. more transactivation activity. To be noted: library: random library.
Regarding KRLRSDFELMVGPQRDHWP, the growth estimate is less than -0.25.

In the case of VRLGMDRHSAHNGR, the growth estimate was less than -0.25.

With QMWDFTHSRDESGPCIGVTT, the growth estimate is less than -0.25.

In the case of RRGGCSGFSNRKVA, the growth estimate is less than -0.25.

As to PRCVLDLLYVSRSSRHWKVL, the growth estimate is less than -0.25.

Turning to FPINLYETNRLVNRWSDEVA, the growth estimate was less than -0.25.

INSPSSGRAKTS: the growth estimate was less than -0.25.

Take GGGFRSRVGQAPSAERVQSA: the growth estimate was less than -0.25.

For the substance DVT, the growth estimate was less than -0.25.

For the substance TRSDGPGPSSDSPESHSWRS, the growth estimate is less than -0.25.

For the substance VWPRFALIAGWVGQACISLV, the growth estimate is less than -0.25.

With VPRRHLGQRKWRALHSQ, the growth estimate was less than -0.25.

As to RPNQRAQTLTLLELTGRGSG, the growth estimate is less than -0.25.

For WWGYLSHNGTSDWLRSFTEI, the growth estimate is -0.112.

PSTPGRGRVTEEI: the growth estimate was less than -0.25.

Consider NGLTKVAGPVNHAPDGHRSS, for which the growth estimate is less than -0.25.

On to LTWWAQVLQNL, for which the growth estimate is less than -0.25.

With RQYSLPNGSNAEHFWVYRAT, the growth estimate is less than -0.25.

In the case of TRFRDLEGYGLRI, the growth estimate was less than -0.25.

As to PLPC, the growth estimate was less than -0.25.

Take NTFKAWVGEGGIM: the growth estimate is less than -0.25.

Regarding APPWILFVPDWATSRNI, the growth estimate is less than -0.25.

As to AEALAIAPAAACLNGGANRR, the growth estimate was less than -0.25.

On to MAGSIGAAGST, for which the growth estimate is less than -0.25.

As to SNLGKLGFLAFRLNPPDVLT, the growth estimate was less than -0.25.

Take RTTQFQI: the growth estimate is less than -0.25.

As to AERNQSTFGRRFRRTGESSE, the growth estimate was less than -0.25.

FRGVKFVGIAGTVRIFSPWA: the growth estimate is less than -0.25.

As for AIRLIRANTKLLV, the growth estimate is less than -0.25.

Turning to RQSKALHGS, the growth estimate was less than -0.25.

As to AGWNGHSHFVRRVQTEVT, the growth estimate was less than -0.25.

For the substance LLRSISRWGRT, the growth estimate is less than -0.25.

As for ESLSRSH, the growth estimate was less than -0.25.

As for KVVSSRPSIDSTLMFRTI, the growth estimate is less than -0.25.

For the substance VINPN, the growth estimate is less than -0.25.

As for CHSRVV, the growth estimate was less than -0.25.

For YVVAGLTESNERNLSFRSPS, the growth estimate is less than -0.25.

AIRCFKLGYCRQP: the growth estimate is less than -0.25.

On to SSLSQNVGMESRKRKPGFTS, for which the growth estimate is less than -0.25.

For EPRVKLR, the growth estimate is less than -0.25.

Regarding GKVLRRHR, the growth estimate was less than -0.25.

As to GLTVLGRLTQTSSESLKRNT, the growth estimate was less than -0.25.

As for DYV, the growth estimate is less than -0.25.

For the substance LRVFVFVMTCGRGRHVAYRC, the growth estimate is less than -0.25.

As for VVYTCTG, the growth estimate was less than -0.25.

As to GQMLLNA, the growth estimate is less than -0.25.

As to PGWGSQG, the growth estimate was less than -0.25.

As for PCLPPEDKTISRFATVTRWP, the growth estimate is less than -0.25.

In the case of LTIGW, the growth estimate was less than -0.25.

Turning to SLRVRLGTVSSVAYTDNPTL, the growth estimate is less than -0.25.

On to VTGRKRIAISTGY, for which the growth estimate was less than -0.25.

Consider HCVTVPPTLLRCGTLYCQLA, for which the growth estimate was less than -0.25.

As for FEFSDGQ, the growth estimate was less than -0.25.

On to STGLNEDSYPHSRLHCSLPT, for which the growth estimate was less than -0.25.

In the case of WSVGCGGHCSIRQ, the growth estimate was less than -0.25.

In the case of GTCEGASKCLL, the growth estimate is less than -0.25.

With LNRCAIE, the growth estimate is less than -0.25.

Turning to AIKYKTRDRNLLKPPGSHLT, the growth estimate is less than -0.25.

NAV: the growth estimate is less than -0.25.

For VSAGSPL, the growth estimate was less than -0.25.

Consider SRVPSIDKFR, for which the growth estimate was less than -0.25.

Regarding ITDQSLYRCGTVNAASARRS, the growth estimate was less than -0.25.

Regarding CVSSVCSGRSDTVNAFFPPA, the growth estimate was less than -0.25.

Consider WDYYGSGGVYVVGTYEDVLI, for which the growth estimate was less than -0.25.

For the substance GESLAVRQV, the growth estimate is less than -0.25.

Turning to VELRGPQALQVI, the growth estimate is less than -0.25.

For RRLKFSPWPCIYVLGSRIRY, the growth estimate was less than -0.25.

On to AAIPCQYSVIGRDTQG, for which the growth estimate is less than -0.25.

DNHPQISMLQVIDLHSL: the growth estimate was less than -0.25.

Turning to RSSMDR, the growth estimate is -0.25.

Regarding TVGRKMTRKPRERDRRLYYE, the growth estimate was less than -0.25.

AVVEFPSHRC: the growth estimate was less than -0.25.

Regarding LCHLRRKCNFGCLHRYDFFS, the growth estimate is less than -0.25.

With KWSS, the growth estimate is less than -0.25.

TGRFPFFEYTPRCAILLKVQ: the growth estimate is less than -0.25.

As to CRLTRCLGPYLMDRPVLHSL, the growth estimate was less than -0.25.

For GWLRFIVSRLMSSMVRSHRL, the growth estimate was less than -0.25.

Take PSAGSTDPQIYSAIRAFPYR: the growth estimate is less than -0.25.

In the case of RLTVPPVTIIRYKDPPRPGA, the growth estimate is less than -0.25.

(Values after the supplement of paper PMC5949888.)
